{"sequences": {"note": "By UniProt entry, the sequences of proteins in these tests, tags left out. Where a name states a change or a piece, a line headed by the entry shows the natural chain unless it says otherwise.", "UniProt P28593": "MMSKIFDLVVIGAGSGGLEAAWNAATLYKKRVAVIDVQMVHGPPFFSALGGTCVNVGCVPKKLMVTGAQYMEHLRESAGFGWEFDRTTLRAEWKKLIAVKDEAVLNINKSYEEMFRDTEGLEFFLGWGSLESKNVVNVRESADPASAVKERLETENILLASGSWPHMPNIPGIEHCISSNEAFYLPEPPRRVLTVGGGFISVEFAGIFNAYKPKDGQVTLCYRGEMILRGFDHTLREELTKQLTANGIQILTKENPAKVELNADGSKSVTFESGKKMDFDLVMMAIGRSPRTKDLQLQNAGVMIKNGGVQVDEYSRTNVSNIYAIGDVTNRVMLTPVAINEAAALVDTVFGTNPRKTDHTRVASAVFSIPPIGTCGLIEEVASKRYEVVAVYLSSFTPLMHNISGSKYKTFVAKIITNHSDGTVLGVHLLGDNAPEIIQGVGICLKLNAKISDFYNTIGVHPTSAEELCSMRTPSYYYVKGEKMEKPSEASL"}, "source": "patent US20030175848A1", "about": "“Substituted dithiobisnitrobenzenes and their applications” (Institut Pasteur De Lille, priority 1998, published 2003)", "origin": "cited, not measured here", "biological_target": "trypanothione reductase from Trypanosoma cruzi (TcTR) (Trypanosoma cruzi, UniProt P28593)", "parameters": "made in house; host or cells: Escherichia coli SG5 carrying pIBITczTR", "conditions": "substrate of recombinant TcTR; reference [1]; cited from earlier work", "note": "At least one compound was matched to its structure with a doubt left.", "data": [{"smiles": "N[C@@H](CCC(=O)N[C@H]1CSSC[C@H](NC(=O)CC[C@H](N)C(=O)O)C(=O)NCC(=O)NCCCNCCCCNC(=O)CNC1=O)C(=O)O", "note": "[TS2, oxidized N^1, N^8-bis(glutathionyl)-spermidine]", "values": [{"measurement": "Kcat/Km", "result": "5.3e+06", "unit": "M⁻¹ s⁻¹"}]}]}
